Laboratory results: article PMC6822764, “MitoToxy assay: A novel cell-based method for the assessment of metabolic toxicity in a multiwell plate format using a lactate FRET nanosensor, Laconic” (PLoS ONE, 2019)
“Also recorded” adds a separate entry of the source.

System: MitoTox Reporter cells (MDA-MB-231 expressing Laconic)
Experiment: Pilot screening of 13 compounds with MitoTox Reporter cells, multiplate reader
Format: cell-based
Settings: 1, 5, and 10 μM
Experimental: MitoTox reporter cell line was cultured in Leibowitz media (Gibco) supplemented with 10% of fetal bovine serum (FBS) at 37°C at atmospheric CO2 levels in a 100 mm petri dish. Once cells reached 100% confluency, they were trypsinized using 5% trypsin (Gibco) and washed in PBS. Viability was determine using trypan blue staining and 10,000 cells were seeded into each well of a 96 well plate. Experiments in 96 well format were performed once cells reached 100% confluency after 6 days, during the incubation media was not replaced. All the plates with signal-to-noise ration below 1.3 for monomeric Teal Fluorescent Protein (mTFP) and Venus channels were discarded. Background signal was determined with KRH buffer without cells. […] Then 200 μl of KRH HEPES buffer without any carbon sources was added to each well and the baseline was measured (RMIN), then 100 μl of buffer was replaced with mitochondrial toxicant/controls and signal was measured to obtain a stimulated response (RMAX). […] All the experiments in 96 well plates were performed in an EnVision® multiplate reader (PerkinElmer). Each well was excited at 430 nm and the intensity of mTFP and Venus fluorescence emission were recorded at 485 nm and 528 nm, using a set of filters. […]

`CCN(CC)CC(=O)Nc1c(C)cccc1C` [lidocaine] was tested, and the “ΔR% variation / lactate accumulation over all concentrations tested” value was “None of these molecules produced an important ΔR% variation; also recorded: did not induce intra-cellular lactate accumulation”.
